This is an account of results in PubChem BioAssay AID493014 (National Center for Advancing Translational Sciences (NCATS), 2011).

The other results are listed elsewhere or left out. Further columns of the screen follow, without active or inactive calls. Most of these compounds were active or inconclusive in the main read-out, so they are no random draw. Potencies come from curve fits of mixed quality, noted in brackets.

This experiment can be described thus: qHTS Assay to Find Inhibitors of Chronic Active B-Cell Receptor Signaling. As to conditions: ABC-DLBCL IkBa-CBG/CBR reporter, luminescence ratio (green luciferase fused to IkBa over red control in TMD8 lymphoma cells), 4 h. The method, boiled down: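 Cell line TMD8 (human ABC DLBCL), stably expressing tet-inducible CBG68-IkBa fusion and CBR; IMDM/0.5% FBS; cpd up to 46 uM; dox induction, 4 h, 37C/5% CO2; dual luminescence; green/red ratio; MG132 control.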

[1] abbreviates: measured here: CBR red luminescence, cell number.
Where [2] appears, read: measured here: IkBa-CBG green luminescence.

In the case of `CCN(CC)S(=O)(=O)c1ccc(N(C)Cc2cccnc2)nc1`, under setting [1], the concentration at half-maximal activity (AC50) was 0.082 µM [rising, full curve, poor fit]. Still for that read-out and setting: as for `FC(F)Oc1ccc(NC(=S)NCCc2ccccn2)cc1`, the figure is 35.5 µM [rising, single point]; as for `COc1ccccc1C(=O)NC(=O)COC(=O)c1ncc(Cl)c(Cl)c1Cl`, 3.66 µM [rising, partial curve, poor fit]; as for `Cc1ccc(-c2nn3c(C)nnc3c3ccccc23)cc1S(=O)(=O)NCc1ccco1`, 29.1 µM [falling, single point]. Same read-out and setting: next, `OC1(c2cccc(C(F)(F)F)c2)CCN(Cc2nnnn2Cc2ccccc2)CC1`: 25.1 µM [falling, single point]. `CCN(CC)C(=O)Cn1c(=O)n(-c2ccccc2)c(=O)c2c3c(sc21)CCC3`: the AC50 under setting [1] is 0.184 µM [rising, full curve, poor fit].

In the case of `CC(C)N=C(N)N=C(N)Nc1ccc(Cl)cc1`, the half-maximal activity concentration (AC50) under setting [1] is 10.3 µM [falling, partial curve, poor fit]. Turning to `Cc1csc(NC(=O)CSc2nc(=O)[nH]c3c2CCCC3)n1`, the AC50 under setting [1] is 35.5 µM [falling, single point]. As for `Cc1ccc(C(CCN)c2ccco2)cc1` (stereo not drawn), under setting [1], the AC50 was 23.1 µM [rising, single point]. The same measure, in the same setting: next, `CCNC(=S)NN=C1CCC(C(C)(C)C)CC1` (stereo not drawn): 2.31 µM [falling, partial curve, poor fit]. On to `O=C(CO/N=C/c1cccc([N+](=O)[O-])c1)Nc1ccc2ccccc2c1`, for which the AC50 under setting [1] was 29.1 µM [falling, single point] and the half-maximal activity concentration (AC50) under setting [2] is 32.6 µM [rising, partial curve, poor fit]. As to `COC(=O)C1=NN(C(=O)c2ccc(Br)cc2)C(O)(C(C)(C)C)C1` (stereo not drawn), under setting [1], the AC50 was 7.08 µM [falling, partial curve]. On the same count and under the same terms, as for `CC(C)Cn1c(N)c(C(=O)COC(=O)c2cc3ccccc3cc2O)c(=O)n(C)c1=O`, the figure is 1.03 µM [rising, single point]. On the same count and under the same terms, as for `COc1ccc(OC(C)C(=O)NCCc2nc3ccccc3[nH]2)cc1` (stereo not drawn), the figure is 3.66 µM [rising, partial curve, poor fit]. Same read-out and setting: next, `COC(=O)c1ccc(C2=NOC(C)(c3sc(-c4ccccc4)nc3C)C2)cc1` (stereo not drawn): 10 µM [rising, partial curve, poor fit]. Regarding `COc1cc(-c2nc(N)n[nH]2)cc(OC)c1OC`, the concentration at half-maximal activity (AC50) under setting [1] is 10 µM [rising, partial curve]. Still for that read-out and setting: as for `Cc1ccc(/C=C/C(=O)NCCc2c[nH]c3ccccc23)o1`, the figure is 22.4 µM [falling, single point]; as for `COc1cc(/C=N/NC(=O)c2cn(-c3cccc(C)n3)cn2)ccc1O`, 6.31 µM [falling, partial curve, poor fit]. On the same count and under the same terms, next, `c1ccc2c(c1)NC(c1ccncc1)n1c-2nc2ccccc21` (stereo not drawn): 5.62 µM [falling, partial curve]; `O=Cc1c[nH]c2ccc(S(=O)(=O)N3CCOCC3)cc12`: 16.4 µM [rising, single point]. Still for that read-out and setting: as for `O=C(Nc1cc(-c2ccccc2)[nH]n1)c1ccccc1F`, the figure is 1.26 µM [falling, full curve]; as for `C/C(=N\NC(=O)COc1ccccc1[N+](=O)[O-])c1cccs1`, 14.1 µM [falling, single point]. As to `O=C(Nc1ccccc1C(=O)NCCN1CCOCC1)c1cccc([N+](=O)[O-])c1`, under setting [1], the half-maximal activity concentration (AC50) is 14.1 µM [falling, single point]. Take `CCC(CC)C(=O)Nc1cccc(C(=O)Nc2nccs2)c1`: under setting [1], the half-maximal activity concentration (AC50) is 12.6 µM [falling, single point]. As for `CCn1c(C)c(C(C)=O)c(N2CCN(c3cccc(Cl)c3)CC2)nc1=S`, the AC50 under setting [1] is 16.4 µM [falling, single point]. As for `Cc1cccc(NC(=O)c2sc3nc(N)c(C#N)cc3c2N)c1`, the AC50 reads like this: under setting [1], 23.1 µM [falling, partial curve]; under setting [2], 25.9 µM [rising, partial curve, poor fit]. As for `Cc1nc2ccc(N=NN(C)C)cc2[nH]1`, under setting [1], the AC50 was 8.91 µM [falling, partial curve, poor fit]. As for `COc1ccc2c(c1)Cc1sc(NC(=O)c3cccc(Br)c3)nc1-2`, the AC50 under setting [1] is 1.12 µM [rising, partial curve, poor fit]. On the same count and under the same terms, as for `COc1cc(CCC(=O)OCC(=O)NC(=O)c2ccc(Cl)cc2)cc(OC)c1OC`, the figure is 10 µM [rising, single point]. As to `Cc1c(NC(=O)CSc2ncnc3c2cnn3-c2ccccc2)c(=O)n(-c2ccccc2)n1C`, under setting [1], the AC50 was 20.6 µM [falling, partial curve, poor fit].

Consider `CCOC(=O)Cc1c(C)nc2cc(-c3ccc(Cl)cc3)[nH]n2c1=O`, for which the AC50 under setting [1] is 6.51 µM [falling, full curve]. On the same count and under the same terms, as for `Cc1ccccc1NC(=O)c1nc[nH]c1C(=O)NCc1ccccc1`, the figure is 29.1 µM [rising, single point]; as for `CCCc1cc(=O)c2c(O)ccc(OC)c2o1`, 35.5 µM [rising, single point]; as for `COc1ccccc1NS(=O)(=O)c1cc(C(=O)NCC(c2ccco2)N2CCCCC2)ccc1C` (stereo not drawn), 29.1 µM [falling, single point]. On the same count and under the same terms, as for `CC(=O)c1cc(C#N)c(SCc2ccccn2)nc1C`, the figure is 10 µM [rising, partial curve, poor fit]. In the case of `O=C(NN1C(=O)c2ccccc2NC1c1ccoc1)c1ccccc1` (stereo not drawn), the AC50 under setting [1] was 35.5 µM [rising, single point]. On to `COc1ccc(-n2cnc(N)c2C(=O)c2cccc([N+](=O)[O-])c2)cc1`, for which, under setting [1], the AC50 is 11.6 µM [falling, partial curve, poor fit]. For the compound `Cc1ccc(NC(=O)Cc2ccc(-c3ccccc3)cc2)nc1`, the AC50 under setting [1] was 14.1 µM [rising, single point]. On the same count and under the same terms, as for `COc1cccc2oc3cc(C#Cc4ccccn4)ccc3c(=O)c12`, the figure is 11.2 µM [falling, single point]; as for `COc1ccc(C(=O)NCC(=O)OCc2ccc(Br)cc2)cc1`, 18.4 µM [rising, partial curve, poor fit]. Still for that read-out and setting: next, `CCn1c(SCC(=O)Nc2nnc(C)s2)nc2c(c1=O)SC(C)C2` (stereo not drawn): 0.58 µM [falling, partial curve, poor fit]. Still for that read-out and setting: next, `CSc1nnc(-c2sccc2-n2cccc2)o1`: 14.1 µM [rising, single point]; `CC1CCN(c2ccc(C(=O)NCCc3ccccc3)cn2)CC1`: 6.31 µM [rising, single point]. With `COc1ccc(C(=O)NCC(=O)NCC(=O)OCc2ccc(Cl)cc2)cc1`, the AC50 under setting [1] is 35.5 µM [rising, single point].

Regarding `O=C(Nc1cc(Sc2ccccn2)cc([N+](=O)[O-])c1)c1cccc(F)c1`, the AC50 under setting [1] was 5.17 µM [rising, partial curve, poor fit]. For `COc1coc(C(O)CN)cc1=O` (stereo not drawn), the AC50 under setting [1] was 9.2 µM [rising, partial curve, poor fit]. The same measure, in the same setting: next, `CN(CC(=O)Nc1cccc(F)c1)C(=O)c1cccc(S(=O)(=O)N2CC3(C)CC2CC(C)(C)C3)c1` (stereo not drawn): 25.9 µM [falling, partial curve]. Same read-out and setting: as for `COc1cccc(C(=O)Nc2ccc(NC(=O)c3ccco3)c(Cl)c2)c1`, the figure is 7.94 µM [falling, full curve, poor fit]. `COc1ccc(C2CC(O)(c3ccccc3)Oc3cc(OC)cc(OC)c32)cc1` (stereo not drawn): the AC50 is, setting by setting: under setting [1], 25.1 µM [falling, single point]; under setting [2], 35.5 µM [rising, partial curve, poor fit]. On to `COc1ccc(C(=O)Oc2cc(OC)cc(OC)c2C(C)=O)cc1`, for which the AC50 under setting [1] is 20.6 µM [rising, partial curve, poor fit].

Turning to `O=C(Nc1nc2ccccc2[nH]1)c1ccc(F)c(S(=O)(=O)N2CCOCC2)c1`, the AC50 under setting [1] is 10.3 µM [falling, partial curve]. On the same count and under the same terms, next, `COc1cccc(Cn2nnc(C(=O)NCc3ccccc3Cl)c2N)c1`: 3.66 µM [falling, full curve, poor fit]. The same measure, in the same setting: next, `O=C(O)c1ccc(O)c(N2C(=O)Nc3ccccc3N2O)c1`: 20.6 µM [falling, partial curve, poor fit]; `O=C(Nc1cccc(-n2cnnn2)c1)C1CCCN(Cc2cccc(C(F)(F)F)c2)C1` (stereo not drawn): 12.6 µM [falling, partial curve, poor fit].

`Cc1cc(OCC(=O)OC(C)C(=O)Nc2ccc(N3CCOCC3)cc2)ccc1Cl` (stereo not drawn): the AC50 under setting [1] is 5.8 µM [rising, full curve, poor fit]. On the same count and under the same terms, next, `Cc1c(C(=O)N2CCOCC2)oc2ccc(Br)cc12`: 29.1 µM [rising, single point]. In the case of `COc1ccccc1-n1cnc2cc(NCc3ccco3)ccc21`, the AC50 is 12.6 µM [falling, partial curve] under setting [1] and 25.1 µM [falling, single point] under setting [2]. On to `Cc1c(C(=O)Nc2ccccn2)sc2nc3n(c(=O)c12)CCC3`, for which, under setting [1], the AC50 is 35.5 µM [falling, single point]. Same read-out and setting: as for `CN(C)c1cc(N/N=C\c2ccccc2)nc(N(C)C)n1`, the figure is 0.447 µM [rising, full curve, poor fit]. On to `CCCC(C)NC(=O)c1ccc(C2SCC(=O)N2Cc2ccco2)cc1` (stereo not drawn), for which the concentration at half-maximal activity (AC50) is 0.0651 µM [rising, full curve, poor fit] under setting [1] and 2.91 µM [falling, partial curve, poor fit] under setting [2]. Regarding `CC(C)[C@@H](C(=O)NC1CC1)N1C(=O)N2CCc3c([nH]c4ccccc34)[C@@]2(C)C1=O`, the AC50 under setting [1] was 14.1 µM [falling, partial curve, poor fit]. For `c1ccc2[nH]c(SCc3cscn3)nc2c1`, the concentration at half-maximal activity (AC50) under setting [1] was 4.11 µM [rising, partial curve, poor fit]. Take `COc1cc(C(=O)Nc2ccc3nc4n(c(=O)c3c2)CCCCC4)cc(OC)c1OC`: the AC50 under setting [1] was 14.1 µM [falling, partial curve, poor fit].
